Laboratory results from publication doi:10.1101/2025.03.28.646022.
Like-named read-outs stand apart in the source and are kept apart here. No constants are given. Whether binding was seen depends on the method and setting. In cells and extracts the contact can be indirect. Some binding calls cover weakened binding; strength is not graded here. For some of these results: Where a sequence is shown, tags or fusion partners need not be part of it.

Chains of the proteins cited; added tags and fusions are not shown. Lines headed by an entry give the natural chain unless they say otherwise; changes in a name come on top.
UniProt Q9UHD9, whole entry: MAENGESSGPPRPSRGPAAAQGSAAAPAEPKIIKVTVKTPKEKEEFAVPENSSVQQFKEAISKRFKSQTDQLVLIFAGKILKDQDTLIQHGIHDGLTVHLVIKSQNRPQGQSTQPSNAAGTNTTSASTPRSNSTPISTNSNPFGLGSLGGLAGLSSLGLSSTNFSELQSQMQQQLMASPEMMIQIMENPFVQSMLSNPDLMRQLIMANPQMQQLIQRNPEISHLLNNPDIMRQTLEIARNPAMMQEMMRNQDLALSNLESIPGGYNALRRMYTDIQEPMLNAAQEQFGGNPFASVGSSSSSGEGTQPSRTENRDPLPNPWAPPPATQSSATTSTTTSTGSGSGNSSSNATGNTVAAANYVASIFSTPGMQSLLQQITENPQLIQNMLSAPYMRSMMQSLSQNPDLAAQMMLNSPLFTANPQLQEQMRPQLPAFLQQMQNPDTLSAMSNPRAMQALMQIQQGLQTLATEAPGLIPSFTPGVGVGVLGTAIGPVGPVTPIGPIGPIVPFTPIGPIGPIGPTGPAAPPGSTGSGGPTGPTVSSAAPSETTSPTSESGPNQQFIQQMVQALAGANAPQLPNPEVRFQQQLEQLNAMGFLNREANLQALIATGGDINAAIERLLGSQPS
UniProt P55036, whole entry: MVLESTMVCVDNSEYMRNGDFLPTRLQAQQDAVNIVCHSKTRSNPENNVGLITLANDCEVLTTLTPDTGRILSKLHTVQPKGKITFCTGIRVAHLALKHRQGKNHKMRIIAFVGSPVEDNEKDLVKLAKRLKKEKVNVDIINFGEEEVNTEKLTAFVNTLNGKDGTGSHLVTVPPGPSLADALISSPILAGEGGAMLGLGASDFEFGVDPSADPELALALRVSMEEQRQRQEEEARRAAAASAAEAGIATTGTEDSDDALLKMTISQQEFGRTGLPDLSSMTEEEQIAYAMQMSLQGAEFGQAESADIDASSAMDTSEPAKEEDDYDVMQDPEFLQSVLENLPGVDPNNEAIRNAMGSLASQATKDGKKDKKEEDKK
UniProt Q05086, whole entry: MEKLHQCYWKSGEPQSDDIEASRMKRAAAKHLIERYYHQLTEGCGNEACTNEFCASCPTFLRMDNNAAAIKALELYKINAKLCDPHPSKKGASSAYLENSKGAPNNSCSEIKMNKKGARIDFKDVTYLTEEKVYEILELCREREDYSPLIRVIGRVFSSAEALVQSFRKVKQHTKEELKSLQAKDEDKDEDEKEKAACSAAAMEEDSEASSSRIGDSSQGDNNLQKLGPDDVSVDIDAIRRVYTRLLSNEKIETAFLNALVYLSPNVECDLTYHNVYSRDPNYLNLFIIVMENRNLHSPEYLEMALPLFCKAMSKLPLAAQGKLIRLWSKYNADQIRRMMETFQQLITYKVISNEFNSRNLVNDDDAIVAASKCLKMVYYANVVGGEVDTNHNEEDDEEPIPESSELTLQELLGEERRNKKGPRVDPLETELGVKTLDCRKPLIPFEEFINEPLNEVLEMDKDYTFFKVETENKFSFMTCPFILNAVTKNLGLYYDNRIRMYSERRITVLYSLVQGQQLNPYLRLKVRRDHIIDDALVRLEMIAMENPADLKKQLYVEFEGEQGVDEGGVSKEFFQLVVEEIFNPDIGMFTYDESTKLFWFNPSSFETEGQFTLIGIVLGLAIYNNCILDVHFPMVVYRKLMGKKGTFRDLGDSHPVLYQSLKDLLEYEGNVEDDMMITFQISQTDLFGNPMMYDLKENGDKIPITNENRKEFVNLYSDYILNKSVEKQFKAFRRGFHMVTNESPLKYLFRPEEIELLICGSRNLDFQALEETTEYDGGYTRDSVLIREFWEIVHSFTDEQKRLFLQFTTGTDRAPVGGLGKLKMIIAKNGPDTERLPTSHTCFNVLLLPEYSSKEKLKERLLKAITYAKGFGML

T1: HA-tagged PEG10 gag-pol^K>R (K393/567/586/590R) (human) (UniProt Q86TG7)
T1 sequence: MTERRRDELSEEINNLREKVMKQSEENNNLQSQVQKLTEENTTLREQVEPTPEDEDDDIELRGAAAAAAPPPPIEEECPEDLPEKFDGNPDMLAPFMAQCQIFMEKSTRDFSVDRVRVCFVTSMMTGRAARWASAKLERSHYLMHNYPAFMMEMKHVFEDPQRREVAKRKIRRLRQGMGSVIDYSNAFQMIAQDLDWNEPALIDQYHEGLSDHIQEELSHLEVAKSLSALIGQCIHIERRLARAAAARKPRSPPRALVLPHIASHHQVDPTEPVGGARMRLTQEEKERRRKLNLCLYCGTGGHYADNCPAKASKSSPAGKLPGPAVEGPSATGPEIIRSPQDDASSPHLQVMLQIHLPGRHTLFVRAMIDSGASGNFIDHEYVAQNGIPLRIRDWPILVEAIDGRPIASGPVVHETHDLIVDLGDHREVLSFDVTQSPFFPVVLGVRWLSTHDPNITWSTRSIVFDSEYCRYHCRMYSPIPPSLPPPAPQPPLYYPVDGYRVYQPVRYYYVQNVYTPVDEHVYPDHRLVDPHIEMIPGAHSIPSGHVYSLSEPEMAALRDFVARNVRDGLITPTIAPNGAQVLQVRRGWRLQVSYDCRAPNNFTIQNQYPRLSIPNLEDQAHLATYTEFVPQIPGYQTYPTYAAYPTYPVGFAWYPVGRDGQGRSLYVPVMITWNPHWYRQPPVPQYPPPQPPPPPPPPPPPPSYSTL


What was measured:
Assay in all cases: co-IP
[1] = target: Ubiquilin 2 (UBQLN2), endogenous (human (endogenous in HEK293)) (UniProt Q9UHD9)
[2] = target: T1, HA-tagged PEG10 gag-pol^K>R (K393/567/586/590R) (human)
[3] = target: Ubiquilin 2 (UBQLN2), endogenous (human (endogenous in HEK293)) (UniProt Q9UHD9); remark: listed apart in the source
[4] = target: FLAG-UBQLN2 WT (AA 1-624) (human) (UniProt Q9UHD9)
[5] = target: FLAG-UBQLN2 ΔUBA (AA 1-580) (human) (UniProt Q9UHD9)
[6] = target: FLAG-UBQLN2 ΔUBL (AA 1-624 missing AA 33-107) (human) (UniProt Q9UHD9)
MYC-UBQLN2 (WT) (human) = MYC-UBQLN2 (WT) (human) (UniProt Q9UHD9)
[7] = target: Ubiquilin 2 (UBQLN2), endogenous (human (endogenous in HEK293)) (UniProt Q9UHD9); remark: listed apart in the source

Row | Molecule | binding [1] | binding [3] | binding [4] | binding [5] | binding [6] | binding (MYC-UBQLN2 (WT) (human)) | binding [7] | other results
1 | PSMD4 (also known as Rpn10), proteasome subunit, endogenous (from UniProt P55036 1-377) | binds |  |  |  |  |  |  | 
2 | Ubiquilin 2 (UBQLN2), endogenous (from UniProt Q9UHD9 1-624) |  |  |  |  |  |  |  | binding [2]: binds
3 | PEG10 gag, endogenous (protein, UniProt Q86TG7-2 1-325) MTERRRDELSEEINNLREKVMKQSEENNNLQSQVQKLTEENTTLREQVEPTPEDEDDDIELRGAAAAAAPPPPIEEECPEDLPEKFDGNPDMLAPFMAQCQIFMEKSTRDFSVDRVRVCFVTSMMTGRAARWASAKLERSHYLMHNYPAFMMEMKHVFEDPQRREVAKRKIRRLRQGMGSVIDYSNAFQMIAQDLDWNEPALIDQYHEGLSDHIQEELSHLEVAKSLSALIGQCIHIERRLARAAAARKPRSPPRALVLPHIASHHQVDPTEPVGGARMRLTQEEKERRRKLNLCLYCGTGGHYADNCPAKASKSSPAGNSPAPL |  | binds | binds | binds | binds | binds | binds | 

More lines, main results first:

Row | binding [1] | binding [3] | binding [4] | binding [5] | binding [6] | binding (MYC-UBQLN2 (WT) (human)) | binding [7] | Molecule | other results
4 | binds |  |  |  |  |  |  | FLAG-tagged UBE3A ΔAZUL (UBE3A^ΔAZUL), isoform 2, AA 60-853 (from UniProt Q05086-2 60-852) (domain or fragment) | 
5 | binds |  |  |  |  |  |  | UBE3A (also known as E6AP), endogenous (from UniProt Q05086 1-875) (enzyme) | 
6 |  | binds | binds | binds | binds | binds | binds | PEG10 gag-pol, endogenous (protein, UniProt Q86TG7 1-708) MTERRRDELSEEINNLREKVMKQSEENNNLQSQVQKLTEENTTLREQVEPTPEDEDDDIELRGAAAAAAPPPPIEEECPEDLPEKFDGNPDMLAPFMAQCQIFMEKSTRDFSVDRVRVCFVTSMMTGRAARWASAKLERSHYLMHNYPAFMMEMKHVFEDPQRREVAKRKIRRLRQGMGSVIDYSNAFQMIAQDLDWNEPALIDQYHEGLSDHIQEELSHLEVAKSLSALIGQCIHIERRLARAAAARKPRSPPRALVLPHIASHHQVDPTEPVGGARMRLTQEEKERRRKLNLCLYCGTGGHYADNCPAKASKSSPAGKLPGPAVEGPSATGPEIIRSPQDDASSPHLQVMLQIHLPGRHTLFVRAMIDSGASGNFIDHEYVAQNGIPLRIKDWPILVEAIDGRPIASGPVVHETHDLIVDLGDHREVLSFDVTQSPFFPVVLGVRWLSTHDPNITWSTRSIVFDSEYCRYHCRMYSPIPPSLPPPAPQPPLYYPVDGYRVYQPVRYYYVQNVYTPVDEHVYPDHRLVDPHIEMIPGAHSIPSGHVYSLSEPEMAALRDFVARNVKDGLITPTIAPNGAQVLQVKRGWKLQVSYDCRAPNNFTIQNQYPRLSIPNLEDQAHLATYTEFVPQIPGYQTYPTYAAYPTYPVGFAWYPVGRDGQGRSLYVPVMITWNPHWYRQPPVPQYPPPQPPPPPPPPPPPPSYSTL | 
